PubChem BioAssay AID1259425 | University of Nebraska Medical Center, 2018

Screen: 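Find knockdowns that reproduce the gene expression pattern seen when KSR1 is lost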 (primary screen)
Cells: HCT116 human colon cancer cells
Knock-down reagent: siRNA pool against human genes, 50 nM siRNA
Measurement: 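After 50 nM siRNA pool, branched-DNA assay measures six marker transcripts per well, minus blank, normalised to the geometric mean of two housekeeping transcripts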
Reading the numbers: BNIP3L mRNA: higher = more BNIP3L transcript after knockdown; NDRG1 mRNA: higher = more NDRG1 transcript after knockdown; BNIP3 mRNA: higher = more BNIP3 transcript after knockdown; ALDOC mRNA: higher = more ALDOC transcript after knockdown; ACSL5 mRNA: higher = more ACSL5 transcript after knockdown
The whole screen tested about 14,000 reagents; this is a part drawn at random. Reagents against one gene are numbered here. The record does not give: the time to read-out.

Gene | reagent no. | BNIP3L mRNA, set 1 | NDRG1 mRNA, set 1 | BNIP3 mRNA, set 1 | ALDOC mRNA, set 1 | ACSL5 mRNA, set 1
NDUFA8 (NADH:ubiquinone oxidoreductase subunit A8) | 1 | 0.142 | 0.558 | 0.433 | 0.0256 | 0.23
MAML3 (mastermind like transcriptional coactivator 3) | 1 | 0.138 | 1.6 | 0.697 | 0.028 | 0.6
COL9A3 (collagen type IX alpha 3 chain) | 1 | 0.125 | 1.35 | 0.308 | 0.0158 | 0.183
HSF1 (heat shock transcription factor 1) | 1 | 0.0862 | 0.0749 | 0.301 | 0.011 | 0.152
MEF2A (myocyte enhancer factor 2A) | 1 | 0.126 | 0.0395 | 0.305 | 0.0205 | 0.147
DNAAF5 (dynein axonemal assembly factor 5) | 1 | 0.0677 | 0.165 | 0.168 | 0.0157 | 0.174
BIN3-IT1 (BIN3 intronic transcript 1) | 1 | 0.112 | 0.119 | 0.345 | 0.0335 | 0.146
EHD1 (EH domain containing 1) | 1 | 0.239 | 0.66 | 0.528 | 0.0283 | 0.346
KAT7 (lysine acetyltransferase 7) | 1 | 0.087 | 0.146 | 0.211 | 0.0251 | 0.181
IL12RB1 (interleukin 12 receptor subunit beta 1) | 1 | 0.115 | 0.404 | 0.244 | 0.0163 | 0.145
GFER (growth factor, augmenter of liver regeneration) | 1 | 0.192 | 0.409 | 0.555 | 0.0227 | 0.111
CIDEA (cell death inducing DFFA like effector a) | 1 | 0.0876 | 0.292 | 0.247 | 0.0136 | 0.253
POLR3E (RNA polymerase III subunit E) | 1 | 0.226 | 0.945 | 0.211 | 0.0273 | 0.194
POLR1H (RNA polymerase I subunit H) | 1 | 0.0839 | 0.564 | 0.304 | 0.0291 | 0.307
FAM184B (family with sequence similarity 184 member B) | 1 | 0.101 | 0.128 | 0.268 | 0.0219 | 0.125
RAB22A (RAB22A, member RAS oncogene family) | 1 | 0.0916 | 0.174 | 0.203 | 0.0242 | 0.095
IFT140 (intraflagellar transport 140) | 1 | 0.148 | 0.0559 | 0.282 | 0.0299 | 0.102
RPL36A (ribosomal protein L36a) | 1 | 0.196 | 0.31 | 0.365 | 0.0136 | 0.241
MKKS (MKKS centrosomal shuttling protein) | 1 | 0.116 | 0.229 | 0.469 | 0.0168 | 0.342
OTUD4 (OTU deubiquitinase 4) | 1 | 0.0482 | 0.128 | 0.238 | 0.0185 | 0.108
PTPN4 (protein tyrosine phosphatase non-receptor type 4) | 1 | 0.0865 | 0.0738 | 0.186 | 0.0136 | 0.0982
GPC1 (glypican 1) | 1 | 0.0262 | 0.113 | 0.276 | 0.0356 | 0.146
AP1B1 (adaptor related protein complex 1 subunit beta 1) | 1 | 0.291 | 0.433 | 0.763 | 0.0793 | 0.237
FGF5 (fibroblast growth factor 5) | 1 | 0.0672 | 0.322 | 0.275 | 0.0292 | 0.184
CHMP4A (charged multivesicular body protein 4A) | 1 | 0.0553 | 0.114 | 0.249 | 0.0208 | 0.0752
PPIG (peptidylprolyl isomerase G) | 1 | 0.0762 | 0.619 | 0.513 | 0.0411 | 0.407
STAP2 (signal transducing adaptor family member 2) | 1 | 0.14 | 0.132 | 0.414 | 0.037 | 0.0784
CIT (citron rho-interacting serine/threonine kinase) | 1 | 0.14 | 0.0941 | 0.383 | 0.00697 | 0.323
ZNF117 (zinc finger protein 117) | 1 | 0.122 | 0.44 | 0.515 | 0.0199 | 0.213
ZNF117 (zinc finger protein 117) | 2 | 0.328 | 1.81 | 0.647 | 0.0866 | 0.444
HEG1 (heart development protein with EGF like domains 1) | 1 | 0.403 | 0.622 | 0.226 | 0.0274 | 0.229
OSGEPL1 (O-sialoglycoprotein endopeptidase like 1) | 1 | 0.142 | 1.67 | 0.579 | 0.0528 | 0.211
GSPT1 (G1 to S phase transition 1) | 1 | 0.157 | 0.387 | 0.412 | 0.0187 | 0.0926
STIM2 (stromal interaction molecule 2) | 1 | 0.0586 | 0.154 | 0.244 | 0.012 | 0.197

Copied from above, 2 entries:
Gene | reagent no. | BNIP3L mRNA, set 1 | NDRG1 mRNA, set 1 | BNIP3 mRNA, set 1 | ALDOC mRNA, set 1 | ACSL5 mRNA, set 1
RPL36A (ribosomal protein L36a) | 1 | 0.196 | 0.31 | 0.365 | 0.0136 | 0.241
MKKS (MKKS centrosomal shuttling protein) | 1 | 0.116 | 0.229 | 0.469 | 0.0168 | 0.342
